In PubChem BioAssay AID758 (NMMLSC, 2007):
Screen size: about 190,000 compounds; about 110 (0.058%) were called active. Inconclusive results, whose numbers are uncertain, are shown with a selection of clear calls.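 How the source made its calls: active means fluorescent GTP binding to Rab7 beads changed by at least 20 points from the 100% baseline, either direction, mostly lower; inconclusive means compound itself probably fluorescent, or too few beads counted; inactive means the rest.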

The compounds below were run on Rab7 GTPase wild type (dog), Bodipy-FL-GTP binding (assay: modulators of GTP binding to Rab7, primary screen, biochemical, wildtype, multiplex bead flow cytometry (AID 758;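 further: median green fluorescence of bound Bodipy-FL-GTP per Rab7 bead population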)). Conditions: GST-Rab7 beads, fluorescent GTP binding, at 10 µM, actives lie on both sides, untreated = 100%, excess cold GTP = 0%.

Structure (SMILES)	GTP binding activity (percent of control)
O=C(O)CCCCCNS(=O)(=O)c1ccc(Cl)cc1	inconclusive: 98%
CC(=O)N1CCN(c2ccccc2NC(=O)c2ccc(-c3cccc([N+](=O)[O-])c3)o2)CC1	inconclusive: 97%
O=C1C(NS(=O)(=O)c2ccc(Cl)cc2)=C(N2CCCCC2)C(=O)c2ccccc21	inactive: 96%
Cc1cc2nc(-c3ccc(SCc4ccccc4C#N)nc3)[nH]c2cc1C	inconclusive: 90%
Cc1ccc(C(=O)N2c3ccccc3CC2C)o1 (centres undefined)	inconclusive: 99%
O=C(NCc1ccc(F)cc1)C(c1ccccc1)N(CC1CCCO1)C(=O)Cn1nnc2ccccc21 (centres undefined)	inconclusive: 642%
O=C(COc1ccccc1[N+](=O)[O-])Nc1ccc(N2CCN(C(=O)c3cccs3)CC2)cc1	inactive: 97%
CC1(C)C([N+](=O)[O-])C(c2ccccc2O)NC(c2ccccc2O)C1[N+](=O)[O-] (centres undefined)	inactive: 93%
C=CCn1c(-c2csc(-c3ccc(Cl)cc3)n2)n[nH]c1=S	inactive: 105%
CC(=O)Nc1ccc(Nc2ccc3nonc3c2[N+](=O)[O-])cc1	inactive: 94%
O=C(/C=C/c1cccc([N+](=O)[O-])c1)OCC(=O)c1ccccc1	inactive: 98%
COc1ccc(-c2cc(C(F)(F)F)n3nc(C(=O)NCCCN4CCOCC4)cc3n2)cc1	inconclusive: 98%
Cn1c(Sc2ccc(Br)cc2)c(C=O)c2ccccc21	inconclusive: 94%
COc1ccc(/C=C(/C#N)C(=O)Nc2cccc([N+](=O)[O-])c2)cc1C(=O)O	inconclusive: 91%
CC1=C(C(=O)OC(C)C)C(c2cccs2)n2ncnc2N1 (centres undefined)	inconclusive: 102%
COc1cc(/C=N/NC(=O)CCN2CCN(c3ccccc3)CC2)cc(OC)c1OC	inactive: 94%
O=C(C1CCC(CNc2nc(=S)[nH]c3ccccc23)CC1)N1CCN(c2ccc(F)cc2)CC1 (centres undefined)	inconclusive: 89%
NC(=S)N=Nc1c(O)[nH]c2ccc(F)cc12	inactive: 85%
Nc1nn(-c2ccccc2)nc1C(=O)OCc1ccccc1F	inconclusive: 88%
CCn1cc(Br)c(C(=O)Nc2ccccc2C(=O)OC)n1	inconclusive: 98%
Cc1ccc(NC(=O)c2cccc(S(C)(=O)=O)c2)cc1	inconclusive: 91%
COc1ccc(OC)c(-c2cc(C(=O)N3CCN(c4ncccn4)CC3)c3ccccc3n2)c1	inconclusive: 97%
COc1ccccc1NS(=O)(=O)c1cccc(C(=O)NCc2ccco2)c1	inactive: 95%

Structure (SMILES)	GTP binding activity (percent of control)
CCCn1cnc2cc(NCc3cccc(OC)c3O)ccc21	inconclusive: 93%
c1ccc(CSc2ccc(-c3cccs3)nn2)nc1	inconclusive: 103%
Cc1ccc(S(=O)(=O)Cc2ccc(C(=O)N3CCN(c4cc(C)ccc4C)CC3)o2)cc1	inactive: 84%
COC(=O)c1ccc(NC(=S)NNC(=O)c2ccccc2)cc1	inconclusive: 93%
Cc1cccn2c(CN(C)CC3Cc4ccccc4O3)c(C(=O)N3CCCCC3)nc12 (centres undefined)	inactive: 99%
Cn1c(=O)n(C)c2cc(C(=O)c3ccccc3)ccc21	inconclusive: 102%
Cc1cc(=O)[nH]c(N/N=C/c2ccc(C)o2)n1	inconclusive: 95%
N#CC1=C(N)OC2=C(C(=O)CCC2)C1c1ccsc1 (centres undefined)	inconclusive: 102%
CCOC(=O)C1=C(CC)Nc2ccccc2N=C1NC(=O)c1ccc(OC)c(S(=O)(=O)N2CCCCC2C)c1 (centres undefined)	inconclusive: 91%
CC1(C)CC(=O)C(C=NCCN2CCOCC2)=C(O)C1	inconclusive: 107%
CC1SC(c2ccccc2)N(CC(O)c2ccc([N+](=O)[O-])cc2)C1=O (centres undefined)	inactive: 103%
CCOC(=O)c1sc2ncn(/N=C/c3ccc(O)c(OC)c3)c(=O)c2c1C	inactive: 103%
O=C(Nc1ncn[nH]1)c1ccc(S(=O)(=O)N2CCOCC2)cc1	inactive: 92%
Cc1ccc(NC(=O)CN(C)CC(=O)Nc2cccc(F)c2)cc1S(=O)(=O)N1CCCCCC1	inconclusive: 123%
COc1cccc(-c2cc(C(F)(F)F)c(C#N)c(=O)[nH]2)c1	inactive: 85%
O=C(NC1CCCC1)c1cc(Cl)ccc1[N+](=O)[O-]	inconclusive: 101%
Cc1ccc(S(=O)(=O)N2CCCCC2)cc1NC(=O)COC(=O)Cc1ccc(Cl)cc1	inconclusive: 96%
CC(C)CN(C(=O)COC(=O)c1c(Cl)ccc(Cl)c1Cl)C1CCS(=O)(=O)C1 (centres undefined)	inactive: 96%
O=C(O)CCCCNS(=O)(=O)/C=C/c1ccccc1	inconclusive: 100%
CCCS(=O)(=O)N1CCC(C(=O)N2CCOCC2)CC1	inconclusive: 100%
Cc1ccc2c(c1)c1c(n2CC(O)Cn2nc(C)c(Br)c2C)C(=O)CCC1 (centres undefined)	inconclusive: 91%
CCOC(=O)c1c(NC(=O)CSc2nnc(CNc3ccc(F)cc3)o2)sc(C)c1C	inconclusive: 105%
CCN1/C(=C2/SC(=S)NC2=O)Sc2ccccc21	inconclusive: 89%

Structure (SMILES)	GTP binding activity (percent of control)
CC1CCN(C(C)C(=O)Nc2ccccc2-c2ccccc2)CC1 (centres undefined)	inconclusive: 105%
CCOc1ccc(-n2c(C)nc3cc(C(=O)NCc4ccc5c(c4)OCO5)ccc32)cc1	inactive: 86%
Fc1ccc(-n2c(-c3ccc4ccccc4n3)n[nH]c2=S)cc1Cl	inconclusive: 96%
CCC(=O)N(c1ccc(C(=O)O)cc1)c1nc(-c2ccc(OC)cc2)c(C)s1	inconclusive: 92%
COc1cc(/C=N/NC(=O)CSc2n[nH]c(=O)[nH]c2=O)cc(OC)c1O	inconclusive: 89%
O=C(NC1CC1)C1=C[C@H](c2ccc(C(F)(F)F)cc2)C[C@H](OCc2ccc(CO)cc2)O1	inconclusive: 94%
O=C(O)c1cc2nc(-c3ccc(F)cc3)cc(C(F)(F)F)n2n1	inconclusive: 92%
COc1ccc(N(CC(=O)Nc2nccs2)S(=O)(=O)c2c(C)[nH]c(=O)[nH]c2=O)cc1	inactive: 99%
CCN1CCN(C(=O)CN(C)S(=O)(=O)c2ccc3ccccc3c2)CC1	inconclusive: 95%
COc1ccc(CNC(=O)c2nnn(-c3cccc(C(F)(F)F)c3)c2N)cc1	inactive: 98%
CCN(Cc1cnn(C)c1)Cc1nc(C(c2ccccc2)c2ccccc2)no1	inactive: 96%
COCCSc1ccccc1C(=O)Nc1cc(C)on1	inconclusive: 103%
Cc1ccc2cc3cc(C(=O)N4CC(C)CC(C)C4)oc3nc2c1 (centres undefined)	inconclusive: 96%
Cc1ccc(OCc2nnc(SCC(=O)c3cccs3)n2-c2ccccc2)cc1C	inconclusive: 103%
COc1ccccc1NC(=O)C1=C(C)NC(=O)NC1c1cccc(OC)c1OC (centres undefined)	inconclusive: 108%
Cc1nc2sc(C(=O)Nc3ccccc3)c(N)c2c(C)c1[N+](=O)[O-]	inactive: 101%
COC(=O)c1cc(C(=O)NCc2ccccc2)c(=O)[nH]c1C	inactive: 103%
COCCNC(=O)/C(C#N)=C/c1ccc(OCC(=O)NC2CCCCC2)cc1	inactive: 97%
O=C(CCl)Nc1ccc(Oc2cnc3ccccc3n2)cc1	inactive: 101%
COc1ccccc1CN(Cc1nc2ccccc2c(=O)[nH]1)C(=O)Nc1cccc(C)c1	inactive: 100%
COC(=O)CN(c1nc(C)cc(OC)n1)S(=O)(=O)c1ccccc1	inconclusive: 103%
COc1ccccc1-c1c(C)oc2cc(OCC(=O)OCc3ccccc3)ccc2c1=O	inconclusive: 104%
Cc1ccc(-c2csc3nc(C)n(N)c(=O)c23)cc1	inactive: 95%

Given bar-delimited: part of the list above
Structure (SMILES) | GTP binding activity (percent of control)
Cc1ccc(S(=O)(=O)N2CCCCC2)cc1NC(=O)COC(=O)Cc1ccc(Cl)cc1 | inconclusive: 96%
CC(C)CN(C(=O)COC(=O)c1c(Cl)ccc(Cl)c1Cl)C1CCS(=O)(=O)C1 (centres undefined) | inactive: 96%
O=C(O)CCCCNS(=O)(=O)/C=C/c1ccccc1 | inconclusive: 100%
CCCS(=O)(=O)N1CCC(C(=O)N2CCOCC2)CC1 | inconclusive: 100%
Cc1ccc2c(c1)c1c(n2CC(O)Cn2nc(C)c(Br)c2C)C(=O)CCC1 (centres undefined) | inconclusive: 91%
CCOC(=O)c1c(NC(=O)CSc2nnc(CNc3ccc(F)cc3)o2)sc(C)c1C | inconclusive: 105%
CCN1/C(=C2/SC(=S)NC2=O)Sc2ccccc21 | inconclusive: 89%
CC1CCN(C(C)C(=O)Nc2ccccc2-c2ccccc2)CC1 (centres undefined) | inconclusive: 105%
CCOc1ccc(-n2c(C)nc3cc(C(=O)NCc4ccc5c(c4)OCO5)ccc32)cc1 | inactive: 86%
Fc1ccc(-n2c(-c3ccc4ccccc4n3)n[nH]c2=S)cc1Cl | inconclusive: 96%
CCC(=O)N(c1ccc(C(=O)O)cc1)c1nc(-c2ccc(OC)cc2)c(C)s1 | inconclusive: 92%
COc1cc(/C=N/NC(=O)CSc2n[nH]c(=O)[nH]c2=O)cc(OC)c1O | inconclusive: 89%
O=C(NC1CC1)C1=C[C@H](c2ccc(C(F)(F)F)cc2)C[C@H](OCc2ccc(CO)cc2)O1 | inconclusive: 94%
O=C(O)c1cc2nc(-c3ccc(F)cc3)cc(C(F)(F)F)n2n1 | inconclusive: 92%
COc1ccc(N(CC(=O)Nc2nccs2)S(=O)(=O)c2c(C)[nH]c(=O)[nH]c2=O)cc1 | inactive: 99%
CCN1CCN(C(=O)CN(C)S(=O)(=O)c2ccc3ccccc3c2)CC1 | inconclusive: 95%
COc1ccc(CNC(=O)c2nnn(-c3cccc(C(F)(F)F)c3)c2N)cc1 | inactive: 98%
CCN(Cc1cnn(C)c1)Cc1nc(C(c2ccccc2)c2ccccc2)no1 | inactive: 96%
COCCSc1ccccc1C(=O)Nc1cc(C)on1 | inconclusive: 103%
Cc1ccc2cc3cc(C(=O)N4CC(C)CC(C)C4)oc3nc2c1 (centres undefined) | inconclusive: 96%
Cc1ccc(OCc2nnc(SCC(=O)c3cccs3)n2-c2ccccc2)cc1C | inconclusive: 103%

Continued.

Structure (SMILES)	GTP binding activity (percent of control)
C(=N\Nc1nc(N2CCCC2)nc(N2CCCC2)n1)/c1ccccc1OCc1ccccc1	inconclusive: 94%
Cc1nnc2c3ccccc3c(Cl)nn12	inactive: 102%
Cc1ccc(S(=O)(=O)N(C)CCCC(=O)NC(C)(C)C)cc1	inactive: 104%
CCN1CCCC1CNC(=O)CSc1cc(=O)n(CC)c2ccccc12 (centres undefined)	inconclusive: 106%
O=[N+]([O-])c1ccc(/C=C/C2=NN(c3ccccc3)C(c3ccco3)C2)cc1 (centres undefined)	inconclusive: 146%
O=C(CSc1ncnc2ccccc12)NCCc1ccccc1	inconclusive: 96%
CCCNC(=O)COC(=O)/C=C/c1ccc(C)o1	inactive: 101%
CC(C(=O)NC(C)(C)C)N(Cc1cccs1)C(=O)CCN1CCc2ccccc21 (centres undefined)	inactive: 108%
O=C1CC(C(=O)N2CCC(N3CCC(C(=O)NC4CC4)CC3)CC2)c2ccccc21 (centres undefined)	inactive: 103%
CC(C(=O)N1CCOCC1)N1C(=O)c2cccc3cccc(c23)C1=O (centres undefined)	inactive: 98%
Clc1ccc(Cl)c(OCc2cc(-c3ccccc3Cl)on2)c1	inconclusive: 104%
O=C(Nc1ccccc1)N1CCCC(c2nc(-c3ccc(F)cc3)no2)C1 (centres undefined)	inconclusive: 101%
COC(=O)C1=C(C(=O)OC)C(c2cc([N+](=O)[O-])ccc2O)c2sc(=O)[nH]c2S1 (centres undefined)	inconclusive: 91%
C=CCN(c1ccccc1)S(=O)(=O)c1cccc(C(=O)Oc2ccc3c(C)cc(=O)oc3c2)c1	inconclusive: 99%
O=C1CC(c2ccccc2)CC(O)=C1C=NCCN1CCN(C(=O)Nc2ccccc2)CC1 (centres undefined)	inconclusive: 107%
C/C(=N\Nc1cccc([N+](=O)[O-])c1)c1ccccc1O	inconclusive: 95%
Cc1cc2oc(=O)cc(CN3CCN(S(=O)(=O)c4cccs4)CC3)c2cc1C	inactive: 100%
O=C(CSc1nc2ccccc2[nH]1)NC1CCS(=O)(=O)C1 (centres undefined)	inconclusive: 106%
O=C(NNC(=O)C1CCCN(S(=O)(=O)c2cccc(F)c2)C1)C1CC1 (centres undefined)	inconclusive: 92%
CC(C)(C)c1cc(C(=O)NCCN2CCCC2)cc(C(C)(C)C)c1	inactive: 102%
